Article PMC7819943, “Rice protein-binding microarrays: a tool to detect cis-acting elements near promoter regions in rice”
Some of the results follow.

The sequences below were run against T1, OsSMF1 (Oryza sativa, UniProt Q6ZLB0 1-436) (assay: protein-binding microarray (RPBM); PBS, 2% BSA, 51.3 ng/ul salmon testes DNA, 50 uM zinc acetate, 200 nM TF, 25 C, 1 h; high values mean tight binding). Settings: protein: recombinant; tags: N-terminal polyhistidine and DsRed monomer fusion (pET32a); chain copies: 2; label: CyDye5-dUTP incorporated in the synthesized complementary strand; 3' TTTTT single-stranded linker to array surface; dsDNA, one strand shown.
T1 sequence: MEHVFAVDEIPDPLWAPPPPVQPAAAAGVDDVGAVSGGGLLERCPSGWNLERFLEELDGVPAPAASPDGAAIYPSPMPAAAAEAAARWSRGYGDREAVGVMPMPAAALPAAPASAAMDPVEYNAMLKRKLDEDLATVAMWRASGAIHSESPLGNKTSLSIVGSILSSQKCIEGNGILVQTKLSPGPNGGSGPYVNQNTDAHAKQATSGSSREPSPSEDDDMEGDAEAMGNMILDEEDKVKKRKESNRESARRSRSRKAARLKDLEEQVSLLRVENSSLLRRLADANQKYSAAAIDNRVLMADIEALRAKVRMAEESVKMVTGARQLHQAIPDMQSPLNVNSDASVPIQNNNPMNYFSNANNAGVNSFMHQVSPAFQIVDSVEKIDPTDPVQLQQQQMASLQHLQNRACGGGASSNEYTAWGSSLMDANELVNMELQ
In short: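 A custom Agilent array was converted to double-stranded form by primer extension with Cy5-dUTP and blocked with 2% BSA. Protein at 200 nM in PBS with 2% BSA, salmon testes DNA and 50 µM zinc acetate was applied for 1 h at 25 °C, followed by washing. The proteins were polyhistidine–DsRed N-terminal fusions of transcription factors, expressed in E. coli BL21-CodonPlus and Ni–NTA-purified. The binding signal is per-feature fluorescence intensity (arbitrary units) from an Axon 4000B scanner.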

Sequence	binding signal
GAAAATACGCCTTCGACAGCAGCTGACGTATTCCTCGCTTCGGAGTCACCTAGTGCAG	5660 fluorescence intensity (a.u.)
GAGGTGGAAATGGGAGGGGAAGAAGAGGCTGACATGGTGACGGAGTCACCTAGTGCAG	3980 fluorescence intensity (a.u.)
ACCACACCAACCAAATATGGTTGCGTTATTTCGTCACGCTCGGAGTCACCTAGTGCAG	3510 fluorescence intensity (a.u.)
GGATCTCTTGCGTCCGCCTCCGCCGTGCGACCTCCGCATTCGGAGTCACCTAGTGCAG	3350 fluorescence intensity (a.u.)
GGCTGCCACCTCCGTTGCCGCGCCACCCTCGCCGCCGCAACGGAGTCACCTAGTGCAG	3910 fluorescence intensity (a.u.)
CTAAGCCAACCAGTCGATATCATCGCCGTCATATTCAGCACGGAGTCACCTAGTGCAG	3410 fluorescence intensity (a.u.)
CTCACGGTTACGTGCCGAGATTCTCTTCTGCCACGTTGCACGGAGTCACCTAGTGCAG	7340 fluorescence intensity (a.u.)
AACCGGTGAAACGTCCGATGTGGCATAGAAAATTTTATTTCGGAGTCACCTAGTGCAG	3210 fluorescence intensity (a.u.)
ACATCTACTTGTGATATTCTGAAGTCATCATCCATAGTCACGGAGTCACCTAGTGCAG	4710 fluorescence intensity (a.u.)
CTACCCCGATTTATCCCGACGGCCACGCCACCCCACCTCTCGGAGTCACCTAGTGCAG	4220 fluorescence intensity (a.u.)
TAAAGGAGAAAATACGTCATTCTAAGTAGCGGATCACACACGGAGTCACCTAGTGCAG	3540 fluorescence intensity (a.u.)
CCTTCGTCGCTATGCCGTGGCGATCCCTGCAAAATCAAAGCGGAGTCACCTAGTGCAG	3580 fluorescence intensity (a.u.)
CGTGCACATCCTCGTCAGCTTCGTCGTCCACCACCGTCGACGGAGTCACCTAGTGCAG	5750 fluorescence intensity (a.u.)
GTCTCCCACTCTCTCGCTACTGCCACCGCGGCGCCCCGCGCGGAGTCACCTAGTGCAG	4720 fluorescence intensity (a.u.)
CGACCGACCCTCGCCCGCCCACCGCCGTCACTCTCGTCTGCGGAGTCACCTAGTGCAG	3920 fluorescence intensity (a.u.)
ATGCAGCCTCGACGCTTACTGTCACCACGATCGCATTCACCGGAGTCACCTAGTGCAG	3570 fluorescence intensity (a.u.)
GGTTCGCTCTCTCCGTCTCTCTGCTATGCCCCTCTCTTTCCGGAGTCACCTAGTGCAG	15500 fluorescence intensity (a.u.)
TGCGTCTCACCAGTCGCGCGAGCGAGCCGCGTGACGCGGTCGGAGTCACCTAGTGCAG	4370 fluorescence intensity (a.u.)
ATCGAGCGAGCGCGATATGATTGCATCATCGATCGAGCTCCGGAGTCACCTAGTGCAG	3680 fluorescence intensity (a.u.)
TTTCAAAATATTCAGTTTGAGAATATGTAAATCTTATGGGCGGAGTCACCTAGTGCAG	20100 fluorescence intensity (a.u.)
AATCTACTTCCTCCGTTTTATGTTATAAGACTTTCTAGCACGGAGTCACCTAGTGCAG	3140 fluorescence intensity (a.u.)

Sequence	binding signal
CAAGGACAGGGGCTCCAATCAGGCAGGCATGCATGCATGCCGGAGTCACCTAGTGCAG	4370 fluorescence intensity (a.u.)
CGTAGGATGGTTCAGTCTTAGAACATGGTCAGTTAGGGGACGGAGTCACCTAGTGCAG	16300 fluorescence intensity (a.u.)
CATTGTCTTCTCTTCAAAAGTGCTTTGAAGATTTGGAGTACGGAGTCACCTAGTGCAG	3540 fluorescence intensity (a.u.)
AGCTTCGGTTTTCTTACTCAGCACAACGGGGTGGTGGCGCCGGAGTCACCTAGTGCAG	5360 fluorescence intensity (a.u.)
CCCTCTATAATTAGTGACTTGTAACCTCTTCTTCCCTTCCCGGAGTCACCTAGTGCAG	3820 fluorescence intensity (a.u.)
GGTGCCACCCATTCTTTGTTGCCAACTTGCAGCATCAGTGCGGAGTCACCTAGTGCAG	3730 fluorescence intensity (a.u.)
TATACAATTGCCTTACCTGTCCCCACCTGTCACATGCCTCCGGAGTCACCTAGTGCAG	4640 fluorescence intensity (a.u.)
GCCGGCTTCACCGTGCGCGTGCCGTCTTGGACCCACCACTCGGAGTCACCTAGTGCAG	3140 fluorescence intensity (a.u.)
CTCGGATTTAATGCATGACTCTTTATTCTTCCACGCATGACGGAGTCACCTAGTGCAG	3890 fluorescence intensity (a.u.)
TTCCTCCTCCGGCCACCTCCGCCGGGCGTTGACCCCTACGCGGAGTCACCTAGTGCAG	3230 fluorescence intensity (a.u.)
TGGTTGGTGGTGGTTAGCTAACACGCGGCATCTTCTCCTCCGGAGTCACCTAGTGCAG	4570 fluorescence intensity (a.u.)
TTGTTCCTTCCCTTCTTTTGCTTCGGTACGTCATCCATGTCGGAGTCACCTAGTGCAG	8520 fluorescence intensity (a.u.)
AAGAAATCTCTTCATAGATCTCCTGATGAAAGAATTTAACCGGAGTCACCTAGTGCAG	3730 fluorescence intensity (a.u.)
AGAAGTGAGGTGGAGGTGCGGGGAATCGAACCCCGTGCCTCGGAGTCACCTAGTGCAG	3800 fluorescence intensity (a.u.)
CCCTGCCACGTTGGCTGGGCCATGCTGGCAGCGCTCAGCGCGGAGTCACCTAGTGCAG	14100 fluorescence intensity (a.u.)
GATCTTGTTTCAACGTCATTTTGCTGCGTCTGTTACAGTACGGAGTCACCTAGTGCAG	4110 fluorescence intensity (a.u.)
AACACCACACGCAGGTCGACCTCGACTGGAAGCGCCTCCTCGGAGTCACCTAGTGCAG	17700 fluorescence intensity (a.u.)
TCCTTAAACTTGTGTAGGTGTGTCATCTAGGTCCCTGAACCGGAGTCACCTAGTGCAG	3710 fluorescence intensity (a.u.)
TGCTCCTACATGAAGGAACACATGGCATGTCGACTCAGGCCGGAGTCACCTAGTGCAG	3570 fluorescence intensity (a.u.)
GAATGGCTTGTCGACACGTCGGCATATGCTCATGCATATGCGGAGTCACCTAGTGCAG	12100 fluorescence intensity (a.u.)
CACGTAAGGGCCACATCAGTGCCACGTCAGATCAAAACCGCGGAGTCACCTAGTGCAG	29300 fluorescence intensity (a.u.)

3 entries from above, with bars between the fields.
Sequence | binding signal
GATCTTGTTTCAACGTCATTTTGCTGCGTCTGTTACAGTACGGAGTCACCTAGTGCAG | 4110 fluorescence intensity (a.u.)
AACACCACACGCAGGTCGACCTCGACTGGAAGCGCCTCCTCGGAGTCACCTAGTGCAG | 17700 fluorescence intensity (a.u.)
TCCTTAAACTTGTGTAGGTGTGTCATCTAGGTCCCTGAACCGGAGTCACCTAGTGCAG | 3710 fluorescence intensity (a.u.)
